Assay in all cases: co-IP; HK-2 cells lysed in RIPA buffer; supernatant with Klotho or IgG antibody at 4 °C overnight, protein A/G-agarose beads 4-6 h at 4 °C; western blot
On the technique in general: A western blot detects proteins with antibodies after separation by electrophoresis.

Chains of the proteins cited; added tags and fusions are not shown.
UniProt P04406: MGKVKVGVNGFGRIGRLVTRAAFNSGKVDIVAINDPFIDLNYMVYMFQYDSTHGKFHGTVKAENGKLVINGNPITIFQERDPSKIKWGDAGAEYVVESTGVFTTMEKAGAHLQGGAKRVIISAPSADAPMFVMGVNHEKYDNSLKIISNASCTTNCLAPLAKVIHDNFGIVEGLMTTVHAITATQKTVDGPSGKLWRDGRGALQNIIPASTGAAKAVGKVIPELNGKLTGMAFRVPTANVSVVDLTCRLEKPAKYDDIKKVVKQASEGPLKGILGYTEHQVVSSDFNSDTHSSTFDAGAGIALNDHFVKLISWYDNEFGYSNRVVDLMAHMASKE

For test [1], the target named is T1, ABI3BP (human (endogenous in HK-2)) (UniProt Q7Z7G0).
T1 sequence: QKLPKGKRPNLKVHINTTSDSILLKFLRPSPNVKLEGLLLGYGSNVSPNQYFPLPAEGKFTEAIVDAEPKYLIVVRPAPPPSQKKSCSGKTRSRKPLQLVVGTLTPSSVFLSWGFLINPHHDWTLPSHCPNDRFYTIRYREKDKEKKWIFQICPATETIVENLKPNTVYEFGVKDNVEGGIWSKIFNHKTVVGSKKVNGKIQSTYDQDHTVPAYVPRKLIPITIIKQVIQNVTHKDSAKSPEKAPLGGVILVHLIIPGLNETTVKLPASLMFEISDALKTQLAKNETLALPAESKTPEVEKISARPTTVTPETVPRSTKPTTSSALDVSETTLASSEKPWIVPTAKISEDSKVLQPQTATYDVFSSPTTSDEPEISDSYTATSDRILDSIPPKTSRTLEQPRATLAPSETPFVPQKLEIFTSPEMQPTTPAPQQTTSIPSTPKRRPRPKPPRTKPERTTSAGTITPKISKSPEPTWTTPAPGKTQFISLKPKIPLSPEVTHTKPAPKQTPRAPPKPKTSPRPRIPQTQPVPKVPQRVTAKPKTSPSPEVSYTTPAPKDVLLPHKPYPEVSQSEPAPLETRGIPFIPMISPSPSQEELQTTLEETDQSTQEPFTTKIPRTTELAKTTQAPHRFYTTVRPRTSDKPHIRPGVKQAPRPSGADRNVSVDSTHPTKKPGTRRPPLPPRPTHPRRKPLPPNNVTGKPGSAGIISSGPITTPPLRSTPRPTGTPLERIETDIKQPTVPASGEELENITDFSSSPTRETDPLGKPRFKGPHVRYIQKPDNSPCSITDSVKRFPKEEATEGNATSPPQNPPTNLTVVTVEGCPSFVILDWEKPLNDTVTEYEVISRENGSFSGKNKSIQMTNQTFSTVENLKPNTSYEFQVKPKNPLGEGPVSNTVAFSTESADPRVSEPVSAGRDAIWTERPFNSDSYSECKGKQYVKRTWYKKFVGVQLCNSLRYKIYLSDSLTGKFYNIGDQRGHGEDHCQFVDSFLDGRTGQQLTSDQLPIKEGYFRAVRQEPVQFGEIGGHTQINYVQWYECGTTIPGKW

The target in test [2] is T2, Klotho (human (endogenous in HK-2)) (UniProt Q9UEF7).
T2 sequence: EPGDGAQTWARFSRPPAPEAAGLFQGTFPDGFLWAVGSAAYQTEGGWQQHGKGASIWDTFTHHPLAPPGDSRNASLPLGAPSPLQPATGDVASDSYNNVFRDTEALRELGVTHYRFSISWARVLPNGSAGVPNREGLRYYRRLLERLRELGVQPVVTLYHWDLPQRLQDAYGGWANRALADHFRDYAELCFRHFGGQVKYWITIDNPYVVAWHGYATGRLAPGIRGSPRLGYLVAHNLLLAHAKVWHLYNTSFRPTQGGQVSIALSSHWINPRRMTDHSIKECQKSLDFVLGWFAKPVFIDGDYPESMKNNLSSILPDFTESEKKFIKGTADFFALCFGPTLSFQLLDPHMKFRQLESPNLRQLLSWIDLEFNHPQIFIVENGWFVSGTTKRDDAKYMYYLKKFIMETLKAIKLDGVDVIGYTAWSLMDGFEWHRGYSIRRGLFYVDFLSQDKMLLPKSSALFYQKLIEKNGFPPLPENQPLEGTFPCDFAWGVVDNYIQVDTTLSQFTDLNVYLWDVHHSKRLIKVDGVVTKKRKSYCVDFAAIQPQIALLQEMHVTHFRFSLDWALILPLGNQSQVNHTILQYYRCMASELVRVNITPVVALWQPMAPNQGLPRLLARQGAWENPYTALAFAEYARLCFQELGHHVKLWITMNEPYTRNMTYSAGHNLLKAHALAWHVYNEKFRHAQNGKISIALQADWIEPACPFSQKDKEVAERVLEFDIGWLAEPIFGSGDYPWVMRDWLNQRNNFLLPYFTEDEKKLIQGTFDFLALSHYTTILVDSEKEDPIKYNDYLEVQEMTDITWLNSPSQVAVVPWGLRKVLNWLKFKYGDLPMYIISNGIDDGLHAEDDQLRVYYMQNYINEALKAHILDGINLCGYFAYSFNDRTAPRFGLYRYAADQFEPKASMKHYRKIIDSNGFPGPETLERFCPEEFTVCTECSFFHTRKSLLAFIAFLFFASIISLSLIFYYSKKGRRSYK

Test [3] concerns the target T2, Klotho (human (endogenous in HK-2)). This is another data set of the same source.

Where two headings read alike, the source gives them in different places. These are yes or no findings as the source states them, for the method shown. In cells and extracts the contact can be indirect. Some binding calls cover weakened binding; strength is not graded here.

Regarding GAPDH (from UniProt P04406 1-335), the binding entry in test [1] and in test [2] was “no binding” throughout.

B1: ABI3BP (protein, UniProt Q7Z7G0 22-1068)
chain: T1 sequence
Turning to B1, in test [3], the binding entry is recorded as “binds”.
